# The supplement of paper PMC8728848
# This is one part of the list.
# B1: MtEccB1 (Mycobacterium tuberculosis H37Rv), O69734 (protein)
# chain: MGLRLTTKVQVSGWRFLLRRLEHAIVRRDTRMFDDPLQFYSRSIALGIVVAVLILAGAALLAYFKPQGKLGGTSLFTDRATNQLYVLLSGQLHPVYNLTSARLVLGNPANPATVKSSELSKLPMGQTVGIPGAPYATPVSAGSTSIWTLCDTVARADSTSPVVQTAVIAMPLEIDASIDPLQSHEAVLVSYQGETWIVTTKGRHAIDLTDRALTSSMGIPVTARPTPISEGMFNALPDMGPWQLPPIPAAGAPNSLGLPDDLVIGSVFQIHTDKGPQYYVVLPDGIAQVNATTAAALRATQAHGLVAPPAMVPSLVVRIAERVYPSPLPDEPLKIVSRPQDPALCWSWQRSAGDQSPQSTVLSGRHLPISPSAMNMGIKQIHGTATVYLDGGKFVALQSPDPRYTESMYYIDPQGVRYGVPNAETAKSLGLSSPQNAPWEIVRLLVDGPVLSKDAALLEHDTLPADPSPRKVPAGASGAP
# Experiments:
# Assay in all cases: glycan array binding signal (z-score within array); higher = stronger binding
# Conditions in all cases: glycan notation: IUPAC condensed, linker removed
# [1] = molecular target: Neu5Ac(a2-3)Gal(b1-4)GlcNAc(b1-3)[Neu5Ac(a2-3)Gal(b1-4)GlcNAc(b1-6)]GalNAc
# Method in brief: (§1)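 The binding signal is a Z-score computed within each array and averaged over linkers. Arrays of the same protein sequence at different concentrations or buffers were also averaged together. Data originate from 3228 arrays in the Consortium for Functional Glycomics database, kept only where the protein sequence was available.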
# [2] = molecular target: Neu5Ac(a2-3)Gal(b1-4)GlcNAc(b1-6)GalNAc
# Method in brief: as §1
# [3] = molecular target: Neu5Ac(a2-3)Gal(b1-4)GlcNAc(b1-6)[Gal(b1-3)]GalNAc
# Method in brief: as §1
# [4] = molecular target: Neu5Ac(a2-3)Gal(b1-4)GlcNAc(b1-6)[Neu5Ac(a2-3)Gal(b1-3)]GalNAc
# Method in brief: as §1
# [5] = molecular target: Neu5Ac(a2-3)Gal(b1-4)GlcNAc6S
# Method in brief: as §1
# [6] = molecular target: Neu5Ac(a2-3)Gal(b1-4)[Fuc(a1-3)]GlcNAc
# Method in brief: as §1
# [7] = molecular target: Neu5Ac(a2-3)Gal(b1-4)[Fuc(a1-3)]GlcNAc(b1-2)Man
# Method in brief: as §1
# [8] = molecular target: Neu5Ac(a2-3)Gal(b1-4)[Fuc(a1-3)]GlcNAc(b1-3)Gal
# Method in brief: as §1
# [9] = molecular target: Neu5Ac(a2-3)Gal(b1-4)[Fuc(a1-3)]GlcNAc(b1-3)Gal(b1-4)GlcNAc
# Method in brief: as §1
# [10] = molecular target: Neu5Ac(a2-3)Gal(b1-4)[Fuc(a1-3)]GlcNAc(b1-3)Gal(b1-4)[Fuc(a1-3)]GlcNAc(b1-3)Gal(b1-4)[Fuc(a1-3)]GlcNAc
# Method in brief: as §1
# [11] = molecular target: Neu5Ac(a2-3)Gal(b1-4)[Fuc(a1-3)]GlcNAc(b1-3)GalNAc
# Method in brief: as §1
# [12] = molecular target: Neu5Ac(a2-3)Gal(b1-4)[Fuc(a1-3)]GlcNAc(b1-6)[Gal(b1-3)]GalNAc
# Method in brief: as §1
# [13] = molecular target: Neu5Ac(a2-3)Gal(b1-4)[Fuc(a1-3)]GlcNAc(b1-6)[Neu5Ac(a2-3)Gal(b1-3)]GalNAc
# Method in brief: as §1
# [14] = molecular target: Neu5Ac(a2-3)Gal(b1-4)[Fuc(a1-3)]GlcNAc6S
# Method in brief: as §1
# [15] = molecular target: Neu5Ac(a2-3)Gal6S(b1-4)GlcNAc
# Method in brief: as §1
# [16] = molecular target: Neu5Ac(a2-3)Gal6S(b1-4)[Fuc(a1-3)]GlcNAc
# Method in brief: as §1
# [17] = molecular target: Neu5Ac(a2-3)GalNAc
# Method in brief: as §1
# [18] = molecular target: Neu5Ac(a2-3)GalNAc(b1-4)GlcNAc
# Method in brief: as §1
# [19] = molecular target: Neu5Ac(a2-3)[GalNAc(b1-4)]Gal(b1-4)Glc
# Method in brief: as §1
# [20] = molecular target: Neu5Ac(a2-3)[GalNAc(b1-4)]Gal(b1-4)GlcNAc
# Method in brief: as §1
# [21] = molecular target: Neu5Ac(a2-3)[GalNAc(b1-4)]Gal(b1-4)GlcNAc(b1-3)GalNAc
# Method in brief: as §1
# [22] = molecular target: Neu5Ac(a2-3)[Neu5Ac(a2-6)]GalNAc
# Method in brief: as §1
# [23] = molecular target: Neu5Ac(a2-6)Gal
# Method in brief: as §1
# [24] = molecular target: Neu5Ac(a2-6)Gal(b1-3)GlcNAc(b1-3)[Gal(b1-4)GlcNAc(b1-6)]Gal(b1-4)Glc
# Method in brief: as §1
# [25] = molecular target: Neu5Ac(a2-6)Gal(b1-4)Glc
# Method in brief: as §1
# [26] = molecular target: Neu5Ac(a2-6)Gal(b1-4)GlcNAc
# Method in brief: as §1
# [27] = molecular target: Neu5Ac(a2-6)Gal(b1-4)GlcNAc(b1-2)Man
# Method in brief: as §1
# [28] = molecular target: Neu5Ac(a2-6)Gal(b1-4)GlcNAc(b1-2)Man(a1-3)Man(b1-4)GlcNAc(b1-4)GlcNAc
# Method in brief: as §1
# [29] = molecular target: Neu5Ac(a2-6)Gal(b1-4)GlcNAc(b1-2)Man(a1-3)[Gal(b1-4)GlcNAc(b1-2)Man(a1-6)]Man(b1-4)GlcNAc(b1-4)GlcNAc
# Method in brief: as §1
# [30] = molecular target: Neu5Ac(a2-6)Gal(b1-4)GlcNAc(b1-2)Man(a1-3)[GlcNAc(b1-2)Man(a1-6)]Man(b1-4)GlcNAc(b1-4)GlcNAc
# Method in brief: as §1
# [31] = molecular target: Neu5Ac(a2-6)Gal(b1-4)GlcNAc(b1-2)Man(a1-3)[GlcNAc(b1-4)][Neu5Ac(a2-6)Gal(b1-4)GlcNAc(b1-2)Man(a1-6)]Man(b1-4)GlcNAc(b1-4)GlcNAc
# Method in brief: as §1
# [32] = molecular target: Neu5Ac(a2-6)Gal(b1-4)GlcNAc(b1-2)Man(a1-3)[Man(a1-6)]Man(b1-4)GlcNAc(b1-4)GlcNAc
# Method in brief: as §1
# [33] = molecular target: Neu5Ac(a2-6)Gal(b1-4)GlcNAc(b1-2)Man(a1-3)[Neu5Ac(a2-3)Gal(b1-4)GlcNAc(b1-2)Man(a1-6)]Man(b1-4)GlcNAc(b1-4)GlcNAc
# Method in brief: as §1
# [34] = molecular target: Neu5Ac(a2-6)Gal(b1-4)GlcNAc(b1-2)Man(a1-3)[Neu5Ac(a2-6)Gal(b1-4)GlcNAc(b1-2)Man(a1-6)]Man(b1-4)GlcNAc(b1-4)GlcNAc
# Method in brief: as §1
# [35] = molecular target: Neu5Ac(a2-6)Gal(b1-4)GlcNAc(b1-2)Man(a1-3)[Neu5Ac(a2-6)Gal(b1-4)GlcNAc(b1-2)Man(a1-6)]Man(b1-4)GlcNAc(b1-4)[Fuc(a1-6)]GlcNAc
# Method in brief: as §1
# [36] = molecular target: Neu5Ac(a2-6)Gal(b1-4)GlcNAc(b1-2)Man(a1-6)Man(b1-4)GlcNAc(b1-4)GlcNAc
# Method in brief: as §1
# [37] = molecular target: Neu5Ac(a2-6)Gal(b1-4)GlcNAc(b1-2)Man(a1-6)[Gal(b1-4)GlcNAc(b1-2)Man(a1-3)]Man(b1-4)GlcNAc(b1-4)GlcNAc
# Method in brief: as §1
# [38] = molecular target: Neu5Ac(a2-6)Gal(b1-4)GlcNAc(b1-2)Man(a1-6)[GlcNAc(b1-2)Man(a1-3)]Man(b1-4)GlcNAc(b1-4)GlcNAc
# Method in brief: as §1
# [39] = molecular target: Neu5Ac(a2-6)Gal(b1-4)GlcNAc(b1-2)Man(a1-6)[Man(a1-3)]Man(b1-4)GlcNAc(b1-4)GlcNAc
# Method in brief: as §1
# [40] = molecular target: Neu5Ac(a2-6)Gal(b1-4)GlcNAc(b1-2)[Neu5Ac(a2-6)Gal(b1-4)GlcNAc(b1-4)]Man(a1-3)[GlcNAc(b1-4)][Neu5Ac(a2-6)Gal(b1-4)GlcNAc(b1-2)[Neu5Ac(a2-6)Gal(b1-4)GlcNAc(b1-6)]Man(a1-6)]Man(b1-4)GlcNAc(b1-4)GlcNAc
# Method in brief: as §1
# [41] = molecular target: Neu5Ac(a2-6)Gal(b1-4)GlcNAc(b1-2)[Neu5Ac(a2-6)Gal(b1-4)GlcNAc(b1-4)]Man(a1-3)[GlcNAc(b1-4)][Neu5Ac(a2-6)Gal(b1-4)GlcNAc(b1-4)Man(a1-6)]Man(b1-4)GlcNAc(b1-4)GlcNAc
# Method in brief: as §1
# [42] = molecular target: Neu5Ac(a2-6)Gal(b1-4)GlcNAc(b1-2)[Neu5Ac(a2-6)Gal(b1-4)GlcNAc(b1-6)]Man(a1-6)[Neu5Ac(a2-6)Gal(b1-4)GlcNAc(b1-2)Man(a1-3)][GlcNAc(b1-4)]Man(b1-4)GlcNAc(b1-4)GlcNAc
# Method in brief: as §1
# [43] = molecular target: Neu5Ac(a2-6)Gal(b1-4)GlcNAc(b1-3)Gal(b1-3)GlcNAc
# Method in brief: as §1
# [44] = molecular target: Neu5Ac(a2-6)Gal(b1-4)GlcNAc(b1-3)Gal(b1-4)GlcNAc
# Method in brief: as §1
# [45] = molecular target: Neu5Ac(a2-6)Gal(b1-4)GlcNAc(b1-3)Gal(b1-4)GlcNAc(b1-2)Man(a1-3)[Neu5Ac(a2-6)Gal(b1-4)GlcNAc(b1-3)Gal(b1-4)GlcNAc(b1-2)Man(a1-6)]GalNAc
# Method in brief: as §1
binder,measurement,setting,value
B1,glycan array binding signal (z-score),[1],0.258
same,glycan array binding signal (z-score),[2],-0.495
same,glycan array binding signal (z-score),[3],0.01
same,glycan array binding signal (z-score),[4],-1.35
same,glycan array binding signal (z-score),[5],1.54
same,glycan array binding signal (z-score),[6],-0.625
same,glycan array binding signal (z-score),[7],0.248
same,glycan array binding signal (z-score),[8],-0.189
same,glycan array binding signal (z-score),[9],-0.815
same,glycan array binding signal (z-score),[10],-0.184
same,glycan array binding signal (z-score),[11],0.588
same,glycan array binding signal (z-score),[12],0.772
same,glycan array binding signal (z-score),[13],-0.295
same,glycan array binding signal (z-score),[14],-0.432
same,glycan array binding signal (z-score),[15],0.075
same,glycan array binding signal (z-score),[16],0.49
same,glycan array binding signal (z-score),[17],-0.198
same,glycan array binding signal (z-score),[18],0.981
same,glycan array binding signal (z-score),[19],1.1
same,glycan array binding signal (z-score),[20],0.517
same,glycan array binding signal (z-score),[21],-1.39
same,glycan array binding signal (z-score),[22],-1.42
same,glycan array binding signal (z-score),[23],0.809
same,glycan array binding signal (z-score),[24],1.06
same,glycan array binding signal (z-score),[25],-0.932
same,glycan array binding signal (z-score),[26],-0.95
same,glycan array binding signal (z-score),[27],0.17
same,glycan array binding signal (z-score),[28],0.291
same,glycan array binding signal (z-score),[29],0.49
same,glycan array binding signal (z-score),[30],-0.013
same,glycan array binding signal (z-score),[31],-0.564
same,glycan array binding signal (z-score),[32],0.855
same,glycan array binding signal (z-score),[33],-1.03
same,glycan array binding signal (z-score),[34],0.893
same,glycan array binding signal (z-score),[35],1.6
same,glycan array binding signal (z-score),[36],0.269
same,glycan array binding signal (z-score),[37],0.225
same,glycan array binding signal (z-score),[38],-0.324
same,glycan array binding signal (z-score),[39],0.711
same,glycan array binding signal (z-score),[40],0.299
same,glycan array binding signal (z-score),[41],-0.214
same,glycan array binding signal (z-score),[42],-0.566
same,glycan array binding signal (z-score),[43],0.815
same,glycan array binding signal (z-score),[44],-0.021
same,glycan array binding signal (z-score),[45],-1.75

# A section from further up, for reference:
binder,measurement,setting,value
B1,glycan array binding signal (z-score),[30],-0.013
same,glycan array binding signal (z-score),[31],-0.564
